The values below come from publication PMC9114320.

The chains behind the UniProt entries cited, without tags or fusion partners.
UniProt K4LM89: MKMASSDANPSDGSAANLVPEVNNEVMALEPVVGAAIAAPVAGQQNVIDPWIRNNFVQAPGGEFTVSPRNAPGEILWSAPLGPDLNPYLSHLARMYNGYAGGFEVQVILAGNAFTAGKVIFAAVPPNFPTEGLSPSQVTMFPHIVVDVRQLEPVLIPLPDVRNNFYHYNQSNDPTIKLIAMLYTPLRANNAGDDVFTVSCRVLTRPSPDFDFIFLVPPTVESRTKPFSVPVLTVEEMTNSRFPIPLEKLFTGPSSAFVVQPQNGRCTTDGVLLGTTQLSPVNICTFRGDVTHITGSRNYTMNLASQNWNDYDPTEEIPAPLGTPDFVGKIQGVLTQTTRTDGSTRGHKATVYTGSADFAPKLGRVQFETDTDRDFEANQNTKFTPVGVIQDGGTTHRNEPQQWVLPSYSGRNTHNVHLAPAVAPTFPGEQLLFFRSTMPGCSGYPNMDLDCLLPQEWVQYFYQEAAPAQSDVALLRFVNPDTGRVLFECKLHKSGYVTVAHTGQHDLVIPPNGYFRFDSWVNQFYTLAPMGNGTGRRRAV

The target of assay [1] is Norovirus GII.4 (Sydney2012) capsid protein VP1, assembled as virus-like particles (human norovirus GII.4 (Sydney2012)) (UniProt K4LM89). As to the kind of experiment: dynamic light scattering; untreated purified VLPs (1 mg/ml), diluted in 1 ml distilled water, intensity measurements at 25 °C; assembly of VP1 into particles; both purified.
Assay [2] shares this target. As to the kind of experiment: negative stain electron microscopy; untreated purified VLPs (1 mg/ml), diluted 1:40 in distilled water, carbon coated grids, 0.75% uranyl acetate; assembly of VP1 into particles; both purified.

No constants are given. Whether binding was seen depends on the method and setting. Some binding calls cover weakened binding; strength is not graded here.

“Norovirus GII.4 (Sydney2012) capsid protein VP1, assembled as virus-like particles (from UniProt K4LM89 1-540)”: the binding result in assay [1] and in assay [2] was “binds” in each case.
